# Reference: patent US20230287044A1 (priority 2020, published 2023)
# Plain letter strings leave the end groups untold. Square brackets hold non-standard residues; d marks the D form.
# Assay: general procedure: Fmoc solid-phase peptide synthesis; Rink-amide-MBHA resin; diisopropylcarbodiimide and 1-hydroxybenzotriazole
# Conditions: whole synthesis
row,Substance,purity (crude or final not stated)
1,H-[dR][dR][dR][dW][dI][dW][dV][dL][dW][dK]-NH2 (N-terminus assumed; SMILES CC[C@@H](C)[C@@H](NC(=O)[C@@H](Cc1c[nH]c2ccccc12)NC(=O)[C@@H](CCCNC(=N)N)NC(=O)[C@@H](CCCNC(=N)N)NC(=O)[C@H](N)CCCNC(=N)N)C(=O)N[C@H](Cc1c[nH]c2ccccc12)C(=O)N[C@@H](C(=O)N[C@H](CC(C)C)C(=O)N[C@H](Cc1c[nH]c2ccccc12)C(=O)N[C@H](CCCCN)C(N)=O)C(C)C),98.707%
2,H-[dW][dL][dV][dW][dI][dW][dR][dR][dQ][dR]-NH2 (N-terminus assumed; SMILES CC[C@@H](C)[C@@H](NC(=O)[C@@H](Cc1c[nH]c2ccccc12)NC(=O)[C@H](NC(=O)[C@@H](CC(C)C)NC(=O)[C@H](N)Cc1c[nH]c2ccccc12)C(C)C)C(=O)N[C@H](Cc1c[nH]c2ccccc12)C(=O)N[C@H](CCCNC(=N)N)C(=O)N[C@H](CCCNC(=N)N)C(=O)N[C@H](CCC(N)=O)C(=O)N[C@H](CCCNC(=N)N)C(N)=O),98.882%
3,H-[dW][dL][dV][dW][dI][dW][dR][dR][dR]-NH2 (N-terminus assumed; SMILES CC[C@@H](C)[C@@H](NC(=O)[C@@H](Cc1c[nH]c2ccccc12)NC(=O)[C@H](NC(=O)[C@@H](CC(C)C)NC(=O)[C@H](N)Cc1c[nH]c2ccccc12)C(C)C)C(=O)N[C@H](Cc1c[nH]c2ccccc12)C(=O)N[C@H](CCCNC(=N)N)C(=O)N[C@H](CCCNC(=N)N)C(=O)N[C@H](CCCNC(=N)N)C(N)=O),98.784%
4,WLAWLYLRKKR,98.728%
5,WLLWLYARKKR,97.372%
6,WLLWVYVRKKR,77.714%
7,WLVYVWLRKKR,98.361%
8,WLWVWVRKKR,98.155%
9,WVVWVYVRKKR,98.372%
